{"sequences": {"note": "By UniProt entry, the sequences of proteins in these tests, tags left out.", "UniProt Q96LA9, whole entry L83S/Y250A": "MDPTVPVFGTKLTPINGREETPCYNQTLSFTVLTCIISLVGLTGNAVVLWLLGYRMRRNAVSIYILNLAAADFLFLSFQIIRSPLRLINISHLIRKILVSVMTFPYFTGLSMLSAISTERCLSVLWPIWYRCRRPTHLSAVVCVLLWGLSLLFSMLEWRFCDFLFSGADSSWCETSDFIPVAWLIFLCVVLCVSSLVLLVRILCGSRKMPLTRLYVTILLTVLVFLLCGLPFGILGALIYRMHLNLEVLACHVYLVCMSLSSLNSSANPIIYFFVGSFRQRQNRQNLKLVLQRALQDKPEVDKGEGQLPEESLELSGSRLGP"}, "source": "paper PMC11645656", "about": "“MRGPRX4 mediates phospho-drug associated pruritus in a humanized mouse model” (Science translational medicine, 2024)", "key": {"MRGPRX4 Y250A": {"biological_target": "T1, MRGPRX4 Y250A (Homo sapiens, UniProt Q96LA9, L83S/Y250A)", "T1 construct": "expressed in transfected cells; host or cells: HEK293T, transient", "test": "Calcium mobilization assay (FLIPR), MRGPRX4 Y250A mutant", "assay_type": "cell-based", "excerpt": "Fig. 3. […] (A) Cryo-EM density map of MRGPRX4-Gq in complex with fospropofol. (B) The density map of fospropofol and R82 of MRGPRX4. (C and D) Key molecular interactions between fospropofol and the hydrophilic (C) and hydrophobic (D) part of the agonist binding pocket of MRGPRX4. Amino acid residues interacting with fospropofol are shown as sticks. Hydrogen bond is shown as cyan dashed lines. […] Data are from at least three independent experiments, each performed in triplicate, and reported as the mean ± SEM. (E) and (F) were collected from the same sets of experiments.\nTo generate murine Mrgprs expressing cells, HEK293T cells (ATCC) were seeded on poly-D-lysine coated 96 well plate at 25,000 cells per well one day prior to transfection. HEK293T cells were transiently co-transfected with the mammalian expression plasmids carrying cDNA encoding the murine Mrgpr genes and plasmid inserted with cDNA encoding murine α-subunit of the heterotrimeric G15 protein (Gα15) in triplicates using Lipofectamine LTX reagents (Thermo Scientific). To generate WT, S83L, and alanine mutant MRGPRX4-expressing cells, HEK293T cells were seeded on poly-D-lysine coated 384 well plate at 12,000 cells per well one day prior to transfection. Mammalian expression plasmids pLX304 (vector from Addgene) carrying different MRGPRX4 coding sequences were transiently transfected into HEK293T cells in triplicates with Lipofectamine LTX reagents (Thermo Scientific). Intracellular calcium mobilization assays were performed after one day of transfection. Murine Mrgprs tested include Mrgpra1, Mrgpra2a, Mrgpra2b, Mrgpra3, Mrgpra4, Mrgpra6, Mrgpra9, Mrgpra10, Mrgpra11, Mrgpra12, Mrgpra14, Mrgprb5, Mrgprb6, Mrgprb10, Mrgprb11, and Mrgprc11. WT and mutant MRGPRX4 constructs tested include WT, S83L, R82A, R86A, R95A, W158A, Y250A, and Y254A.\nTo generate MRGPRX4 mutant constructs, site-directed mutagenesis was performed using Q5® Site-Directed Mutagenesis Kit (New England Biolabs). The primers were designed by the NEBaseChanger tool, with forward primers spanning designated mutated sequence corresponding to the desired amino acid substitutions. The plasmids with WT MRGPRX4 sequence served as the templates for polymerase chain reaction (PCR) amplification with Q5 high-fidelity polymerase and respective primer pairs according to the manufacturer’s conditions. Then, the linear PCR products underwent phosphorylation, ligation, and simultaneous degradation of template DNA by incubating them with a KLD enzyme mix consisting of T4 polynucleotide kinase, T4 DNA ligase, and DpnI at room temperature for 5 min. Subsequently, the mutated circular plasmids were transformed into NEB 5-alpha competent E. coli by heat-shock method, and the successfully transformed bacteria were selected on LB plates with selection antibiotics. The next day, the transformant colonies were picked, expanded in LB broth containing selection antibiotics overnight. Plasmids were isolated using QIAprep Spin Miniprep Kit (Qiagen) and subjected to sequencing to confirm the mutation."}, "[1]": {"system": "MRGPRX4-expressing HEK293 cells (Gαq signaling pathway)", "test": "Pharmacological blocker experiments: phospho-drug evoked calcium response in MRGPRX4-expressing HEK293 cells after inhibitor preincubation", "details": "+ YM254890"}}, "note": "Where “and” joins values, the source holds several entries; their conditions need not be identical. Identical values can stand only once. This continues a long series; more values of the same kind are listed elsewhere."}
{"smiles": "O=C1NC(c2ccccc2)(c2ccccc2)C(=O)N1COP(=O)(O)O", "note": "[Fosphenytoin]", "values": [{"measurement": "Calcium mobilization response, dose-response replicate data (Fig. 3E and 3F)", "setting": "MRGPRX4 Y250A; concentration 188 pM", "value": "13.7553 and 14.7456 and 4.5118 and 4.057 and 0.1844 and 1.844 and 3.864 and -0.8174 and 10.7747"}, {"measurement": "Calcium mobilization response, dose-response replicate data (Fig. 3E and 3F)", "setting": "MRGPRX4 Y250A; concentration 565 pM", "value": "17.0565 and 10.7842 and 18.7071 and 3.504 and 4.61 and 1.844 and 4.31 and 7.208 and 16.3478"}, {"measurement": "Calcium mobilization response, dose-response replicate data (Fig. 3E and 3F)", "setting": "MRGPRX4 Y250A; concentration 1.69e-9 M", "value": "19.3674 and 16.0661 and 19.0373 and 5.164 and 2.951 and 0.7377 and 8.1 and 12.781 and 20.5833"}, {"measurement": "Calcium mobilization response, dose-response replicate data (Fig. 3E and 3F)", "setting": "MRGPRX4 Y250A; concentration 5.08e-9 M", "value": "13.095 and 13.7553 and 19.0373 and 7.377 and 5.717 and 3.504 and 6.539 and 4.533 and 14.3415"}, {"measurement": "Calcium mobilization response, dose-response replicate data (Fig. 3E and 3F)", "setting": "MRGPRX4 Y250A; concentration 1.52e-8 M", "value": "19.6975 and 18.7071 and 21.6782 and 8.483 and 6.823 and 4.61 and 14.7873 and 8.545 and 19.4687"}, {"measurement": "Calcium mobilization response, dose-response replicate data (Fig. 3E and 3F)", "setting": "MRGPRX4 Y250A; concentration 4.57e-8 M", "value": "19.6975 and 18.7071 and 2.951 and 7.93 and 7.377 and 11.2205 and 10.9976 and 15.0102"}, {"measurement": "Calcium mobilization response, dose-response replicate data (Fig. 3E and 3F)", "setting": "MRGPRX4 Y250A; concentration 1.37e-7 M", "value": "13.7553 and 14.4155 and 22.9987 and 10.1429 and 8.483 and 11.8893 and 15.2331 and 22.1438"}, {"measurement": "Calcium mobilization response, dose-response replicate data (Fig. 3E and 3F)", "setting": "MRGPRX4 Y250A; concentration 4.12e-7 M", "value": "11.1143 and 12.1046 and 16.7264 and 9.036 and 10.6962 and 10.1429 and 5.87 and 10.1059 and 20.1375"}, {"measurement": "Calcium mobilization response, dose-response replicate data (Fig. 3E and 3F)", "setting": "MRGPRX4 Y250A; concentration 1.23e-6 M", "value": "17.3866 and 17.7168 and 9.464 and 4.61 and 5.717 and 10.6962 and 11.6664 and 6.539 and 17.6853"}, {"measurement": "Calcium mobilization response, dose-response replicate data (Fig. 3E and 3F)", "setting": "MRGPRX4 Y250A; concentration 3.7e-6 M", "value": "12.1046 and 11.1143 and 9.464 and 5.164 and 6.27 and 7.93 and 6.316 and 9.437 and 20.5833"}, {"measurement": "Calcium mobilization response, dose-response replicate data (Fig. 3E and 3F)", "setting": "MRGPRX4 Y250A; concentration 1.11e-5 M", "value": "16.7264 and 9.794 and 5.502 and 4.61 and 10.1429 and 9.59 and 8.768 and 12.3351 and 10.1059"}, {"measurement": "Calcium mobilization response, dose-response replicate data (Fig. 3E and 3F)", "setting": "MRGPRX4 Y250A; concentration 3.33e-5 M", "value": "10.1239 and -0.7692 and 3.521 and 6.27 and 10.6962 and 7.93 and 1.412 and 17.0165 and 11.8893"}, {"measurement": "Calcium mobilization response, dose-response replicate data (Fig. 3E and 3F)", "setting": "MRGPRX4 Y250A; concentration 0.0001 M", "value": "1.541 and -1.76 and 0.8804 and 1.291 and 3.504 and 5.164 and 5.647 and 9.883 and 8.3225"}, {"measurement": "calcium response trace, fig. S2B", "setting": "[1]; Time 3.296 s", "value": "1.009 (3×) and 1.002 and 0.9992 and 1.001 and 1.005"}, {"measurement": "calcium response trace, fig. S2B", "setting": "[1]; Time 5.8096 s", "value": "1.008 and 0.9983 and 1.01 (2×) and 1.004 and 1.0064"}, {"measurement": "calcium response trace, fig. S2B", "setting": "[1]; Time 8.3136 s", "value": "1.008 (2×) and 0.9951 and 1.007 and 1.01 and 1 and 1.009"}, {"measurement": "calcium response trace, fig. S2B", "setting": "[1]; Time 10.8264 s", "value": "1.007 and 0.9929 and 0.9975 and 1.002 and 1.016 and 1.005 and 1.012"}, {"measurement": "calcium response trace, fig. S2B", "setting": "[1]; Time 13.3408 s", "value": "0.9992 and 0.9966 and 1.008 (2×) and 1.011 and 1.002 and 1.009"}, {"measurement": "calcium response trace, fig. S2B", "setting": "[1]; Time 15.8536 s", "value": "1.006 (2×) and 0.9979 and 0.9997 and 1.015 and 1.01 and 1.0003"}, {"measurement": "calcium response trace, fig. S2B", "setting": "[1]; Time 18.3672 s", "value": "1.01 and 0.9906 and 1.001 and 1 and 0.9989 and 1.017 and 1.015"}, {"measurement": "calcium response trace, fig. S2B", "setting": "[1]; Time 20.8808 s", "value": "1.013 and 1.021 and 1.003 and 1.016 and 1.018 and 1.029"}, {"measurement": "calcium response trace, fig. S2B", "setting": "[1]; Time 23.3848 s", "value": "1.02 and 1.017 (2×) and 1.022 and 1.019 and 1.032"}, {"measurement": "calcium response trace, fig. S2B", "setting": "[1]; Time 25.8984 s", "value": "1.022 and 1.032 and 1.016 (2×) and 1.027 and 1.044"}, {"measurement": "calcium response trace, fig. S2B", "setting": "[1]; Time 28.392 s", "value": "1.034 and 1.029 and 1.012 and 1.021 and 1.025 and 1.043"}, {"measurement": "calcium response trace, fig. S2B", "setting": "[1]; Time 30.8952 s", "value": "1.031 (2×) and 1.026 and 1.0299 and 1.027 and 1.044"}, {"measurement": "calcium response trace, fig. S2B", "setting": "[1]; Time 33.3896 s", "value": "1.034 and 1.029 and 1.021 and 1.024 and 1.038 and 1.047"}, {"measurement": "calcium response trace, fig. S2B", "setting": "[1]; Time 35.8728 s", "value": "1.046 and 1.033 and 1.024 and 1.026 and 1.0339 and 1.047"}, {"measurement": "calcium response trace, fig. S2B", "setting": "[1]; Time 38.3656 s", "value": "1.044 and 1.033 and 1.025 and 1.027 and 1.036 and 1.051"}, {"measurement": "calcium response trace, fig. S2B", "setting": "[1]; Time 40.86 s", "value": "1.043 and 1.039 and 1.02 and 1.023 and 1.04 and 1.051"}, {"measurement": "calcium response trace, fig. S2B", "setting": "[1]; Time 43.3632 s", "value": "1.051 and 1.026 and 1.021 and 1.023 and 1.033 and 1.043"}, {"measurement": "calcium response trace, fig. S2B", "setting": "[1]; Time 45.8664 s", "value": "1.048 and 1.021 and 1.028 and 1.024 and 1.029 and 1.054"}, {"measurement": "calcium response trace, fig. S2B", "setting": "[1]; Time 48.38 s", "value": "1.041 and 1.021 and 1.027 and 1.023 and 1.035 and 1.052"}, {"measurement": "calcium response trace, fig. S2B", "setting": "[1]; Time 50.8936 s", "value": "1.039 and 1.031 and 1.0228 and 1.019 and 1.0393 and 1.047"}, {"measurement": "calcium response trace, fig. S2B", "setting": "[1]; Time 53.4072 s", "value": "1.04 and 1.026 and 1.028 (2×) and 1.022 and 1.046"}, {"measurement": "calcium response trace, fig. S2B", "setting": "[1]; Time 55.9112 s", "value": "1.041 and 1.028 (2×) and 1.023 and 1.033"}, {"measurement": "calcium response trace, fig. S2B", "setting": "[1]; Time 58.4248 s", "value": "1.043 and 1.028 and 1.021 and 1.025 and 1.0297 and 1.054"}, {"measurement": "calcium response trace, fig. S2B", "setting": "[1]; Time 60.9288 s", "value": "1.0378 and 1.011 and 1.019 and 1.027 and 1.032 and 1.046"}, {"measurement": "calcium response trace, fig. S2B", "setting": "[1]; Time 63.444 s", "value": "1.036 and 1.02 and 1.017 and 1.0191 and 1.033 and 1.052"}, {"measurement": "calcium response trace, fig. S2B", "setting": "[1]; Time 65.9256 s", "value": "1.028 and 1.018 and 1.022 and 1.027 and 1.033 and 1.048"}, {"measurement": "calcium response trace, fig. S2B", "setting": "[1]; Time 68.4192 s", "value": "1.039 and 1.033 and 1.021 and 1.028 and 1.017 and 1.034 and 1.041"}, {"measurement": "calcium response trace, fig. S2B", "setting": "[1]; Time 70.9024 s", "value": "1.035 and 1.0348 and 1.011 and 1.024 and 1.018 and 1.032 and 1.044"}, {"measurement": "calcium response trace, fig. S2B", "setting": "[1]; Time 73.3864 s", "value": "1.037 and 1.033 and 1.02 and 1.016 and 1.018 and 1.032 and 1.046"}, {"measurement": "calcium response trace, fig. S2B", "setting": "[1]; Time 75.8896 s", "value": "1.033 and 1.007 and 1.024 (2×) and 1.016 and 1.0515"}, {"measurement": "calcium response trace, fig. S2B", "setting": "[1]; Time 78.3936 s", "value": "1.041 (2×) and 1.026 and 1.006 and 1.025 and 1.022 and 1.04"}, {"measurement": "calcium response trace, fig. S2B", "setting": "[1]; Time 80.9064 s", "value": "1.031 and 1.026 and 1.011 and 1.015 and 1.014 and 1.032 and 1.042"}, {"measurement": "calcium response trace, fig. S2B", "setting": "[1]; Time 83.4104 s", "value": "1.034 and 1.021 and 1.012 and 1.02 and 1.013 and 1.03 and 1.037"}]}
